These are yes or no findings as the source states them, for the method shown. In cells and extracts the contact can be indirect. Some binding calls cover weakened binding; strength is not graded here.
Experiments:
[1] = target: voltage-dependent anion channel 1 (VDAC1) (human (endogenous in HepG2)) (UniProt P21796); test: proximity ligation; in situ PLA (Duolink In Situ Red Starter Kit) on endogenous proteins in HepG2 cells, confocal microscopy; cells untreated or treated with MetF (0.3 mM, 4 h) or with VDAC1 knockdown for 24 h
[2] = target: T1, PTPIP51 (human (endogenous in HepG2)) (UniProt Q96TC7); test: as above
T1 sequence: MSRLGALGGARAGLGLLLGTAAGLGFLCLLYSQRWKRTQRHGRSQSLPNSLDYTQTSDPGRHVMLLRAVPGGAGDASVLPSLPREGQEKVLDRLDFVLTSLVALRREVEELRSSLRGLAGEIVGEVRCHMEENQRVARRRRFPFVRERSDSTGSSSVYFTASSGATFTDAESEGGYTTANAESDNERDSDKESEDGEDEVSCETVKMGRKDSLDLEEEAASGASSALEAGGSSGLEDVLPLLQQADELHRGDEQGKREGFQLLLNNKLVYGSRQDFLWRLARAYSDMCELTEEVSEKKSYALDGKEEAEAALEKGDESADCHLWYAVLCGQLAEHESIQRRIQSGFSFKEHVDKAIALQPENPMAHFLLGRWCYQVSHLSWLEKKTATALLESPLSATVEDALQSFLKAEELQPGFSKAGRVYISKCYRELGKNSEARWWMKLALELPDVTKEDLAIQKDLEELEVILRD

Amino acid sequences for entries named in this document (tags omitted). Residues count along the entry.
UniProt P21796: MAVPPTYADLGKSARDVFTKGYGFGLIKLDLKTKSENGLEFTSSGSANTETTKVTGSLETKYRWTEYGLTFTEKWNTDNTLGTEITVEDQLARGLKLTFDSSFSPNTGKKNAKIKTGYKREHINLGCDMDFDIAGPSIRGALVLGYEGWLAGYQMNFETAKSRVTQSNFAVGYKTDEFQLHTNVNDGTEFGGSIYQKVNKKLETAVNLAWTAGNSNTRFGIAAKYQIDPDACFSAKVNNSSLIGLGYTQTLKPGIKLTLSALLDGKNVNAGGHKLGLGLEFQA
UniProt P38646, residues 47-679: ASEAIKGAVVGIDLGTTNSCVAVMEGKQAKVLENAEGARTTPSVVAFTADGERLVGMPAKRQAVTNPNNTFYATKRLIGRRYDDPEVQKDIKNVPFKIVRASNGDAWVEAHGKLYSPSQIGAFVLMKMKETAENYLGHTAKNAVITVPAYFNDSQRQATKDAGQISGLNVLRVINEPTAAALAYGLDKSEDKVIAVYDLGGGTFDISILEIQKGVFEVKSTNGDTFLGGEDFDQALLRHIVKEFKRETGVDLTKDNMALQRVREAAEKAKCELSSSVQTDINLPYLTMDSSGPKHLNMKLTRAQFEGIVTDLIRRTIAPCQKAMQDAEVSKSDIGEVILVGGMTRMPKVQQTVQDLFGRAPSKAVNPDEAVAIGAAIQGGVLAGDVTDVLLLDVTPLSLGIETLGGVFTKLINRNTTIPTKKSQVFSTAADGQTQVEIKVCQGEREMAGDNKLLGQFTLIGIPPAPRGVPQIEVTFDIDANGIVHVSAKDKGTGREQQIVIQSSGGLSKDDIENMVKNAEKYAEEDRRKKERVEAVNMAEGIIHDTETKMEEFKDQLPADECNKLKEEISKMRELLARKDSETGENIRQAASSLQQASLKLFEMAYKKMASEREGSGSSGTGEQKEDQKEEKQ
UniProt O95292: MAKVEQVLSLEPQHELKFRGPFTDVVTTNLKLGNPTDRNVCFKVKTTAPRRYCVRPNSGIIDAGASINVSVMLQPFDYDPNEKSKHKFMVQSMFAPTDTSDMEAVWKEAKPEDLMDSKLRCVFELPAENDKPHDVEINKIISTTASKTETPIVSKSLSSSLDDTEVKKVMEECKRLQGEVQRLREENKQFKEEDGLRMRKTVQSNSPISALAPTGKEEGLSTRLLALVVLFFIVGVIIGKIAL

binding [1]	binding [2]	Substance
binds	–	GRP75 (from UniProt P38646 47-679)
–	binds	VAPB (from UniProt O95292 1-243)

— publication PMC11671597, “The anticancer effect of metformin targets VDAC1 via ER-mitochondria interactions-mediated autophagy in HCC” (Experimental & Molecular Medicine, 2024)
